Out of some 340,000 compounds screened, about 6,200 (1.8%) were called active. Inconclusive results, whose numbers are uncertain, are shown with a selection of clear calls. The call rests on the fitted dose curve; in most records, active means well fitted activation curve with a large enough effect; inconclusive means small, poorly fitted or top-dose-only effect; inactive means no such curve, though single readings can be large or run the other way. Where the call is inconclusive, the potency comes from a doubtful curve fit.
Experiment: A quantitative high throughput screen for small molecules that induce DNA re-replication in SW480 colon adenocarcinoma cells. Further: nearly all actives have a fitted effect of over 55% in size. On re-replication activation: % of control where 0% means no effect.
Settings: Hoechst DNA content imaging, 48 h; re-replication activation: at 46.1 µM (top of the series) unless noted
Summary of the method: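 Compounds, transferred as 23 nL by pin tool, were incubated with cells for 48 hr; DNA content per nucleus was then quantified by Hoechst staining and fluorescence plate imaging.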
Potency means the concentration at half of the fitted maximal effect.

SMILES	re-replication activation	Potency
Cc1ccccc1Cn1ccc(NC(=O)c2cnn3c(C(F)(F)F)cc(-c4ccco4)nc23)n1	inactive: -4.86%	–
Cc1ccc(CNC(=O)NC23CC4CC(CC(C4)C2)C3)cc1	inactive: 19.1%	–
COc1ccc(OC)c(NC(=O)CN(c2ccc(OC)c(Cl)c2)S(C)(=O)=O)c1	–	inconclusive: 0.146 µM [activator, full curve, poor fit]
COc1cc(Cl)c(C)cc1NC(=O)c1cccc(OC)c1OC	–	inconclusive: 29.1 µM [activator, single point]
CCN(CC)S(=O)(=O)c1ccc(C)c(NC(=O)CNc2cccc(S(=O)(=O)N3CCOCC3)c2)c1	inactive: -527%	–
COc1cc(C(CCN2CCOCC2)c2c(OC)cc(OC)c3c(-c4ccccc4)cc(=O)oc23)cc(OC)c1OC (stereo unspecified)	–	inconclusive: 8.2 µM [activator, partial curve, poor fit]
OC(c1ccccc1)C1CN(Cc2ccccc2)CCC1(O)c1ccccc1 (stereo unspecified)	inactive: 1.38%	–
Cc1oc(-c2ccccc2)cc1C(=O)Nc1cccc2ccccc12	–	inconclusive: 29.1 µM [activator, single point]
CCN(C[C@H]1N[C@@](Cc2ccccc2)(C(=O)OC)[C@H]2C(=O)N(Cc3ccccc3)C(=O)[C@@H]12)C(=O)c1ccc(F)cc1	inactive: -3.26%	–
Cc1ccc2[nH]c(C)c(CCNC(=O)c3c(N)no[n+]3[O-])c2c1	inactive: -8.98%	–
O=C(CCCCC(=O)NN=Cc1ccccc1O)NN=Cc1ccccc1O	–	active: 1.46 µM
CCOC(=O)C1=C(CSc2nc3ccccc3s2)NC(=O)NC1c1cc(C)ccc1C (stereo unspecified)	–	active: 18.4 µM
COc1ccccc1C(=O)Nc1c[nH]c(=O)[nH]c1=O	inactive: 1.96%	–
O=C(Nc1cc(=O)[nH]c(=O)[nH]1)c1cc(Cl)ccc1Cl	–	active: 20.6 µM
CCc1cc(-c2[nH]ncc2-c2ccc3c(c2)OCO3)c(O)cc1O	inactive: 9.45%	–
Fc1cccc(Cc2noc(CN3CCN(C4CCc5ccccc5C4)CC3)n2)c1 (stereo unspecified)	–	inconclusive: 0.461 µM [activator, full curve, poor fit]
Cc1cccnc1NC(=S)Nc1ccc(Br)cc1Cl	inactive: 0.0673%	–
CCCCOc1ccc(C2(C)NC(=O)NC2=O)cc1 (stereo unspecified)	–	inconclusive: 29.1 µM [activator, single point]
CC(=O)NCc1ccc(C(=O)CSc2nnc(C3CC3)n2C2CC2)cc1	–	inconclusive: 6.51 µM [activator, single point]
COc1ccccc1NS(=O)(=O)c1cccc(NC(=O)c2[nH]c(C)c(C(C)=O)c2C)c1	inactive: 0.443%	–
Cc1ccccc1-n1nnnc1SCC(N)=O	inactive: -3.37%	–
Cc1ccc(S(=O)(=O)N(C)C)cc1NC(=O)c1cc(C(C)(C)C)nn1Cc1ccccc1	–	inconclusive: 1.16 µM [activator, full curve, poor fit]
Cc1ccc(OCC(=O)Nn2cnc3ccccc32)cc1	–	inconclusive: 25.9 µM [activator, partial curve, poor fit]

Twelve entries out of the list, ordered by SMILES length, rising.
SMILES	re-replication activation	Potency
Cc1cccnc1NC(=S)Nc1ccc(Br)cc1Cl	inactive: 0.0673%	–
Cc1ccc(OCC(=O)Nn2cnc3ccccc32)cc1	–	inconclusive: 25.9 µM [activator, partial curve, poor fit]
COc1cc(Cl)c(C)cc1NC(=O)c1cccc(OC)c1OC	–	inconclusive: 29.1 µM [activator, single point]
Cc1ccc(CNC(=O)NC23CC4CC(CC(C4)C2)C3)cc1	inactive: 19.1%	–
O=C(CCCCC(=O)NN=Cc1ccccc1O)NN=Cc1ccccc1O	–	active: 1.46 µM
OC(c1ccccc1)C1CN(Cc2ccccc2)CCC1(O)c1ccccc1 (stereo unspecified)	inactive: 1.38%	–
CCc1cc(-c2[nH]ncc2-c2ccc3c(c2)OCO3)c(O)cc1O	inactive: 9.45%	–
CC(=O)NCc1ccc(C(=O)CSc2nnc(C3CC3)n2C2CC2)cc1	–	inconclusive: 6.51 µM [activator, single point]
Cc1ccc2[nH]c(C)c(CCNC(=O)c3c(N)no[n+]3[O-])c2c1	inactive: -8.98%	–
Cc1ccc(S(=O)(=O)N(C)C)cc1NC(=O)c1cc(C(C)(C)C)nn1Cc1ccccc1	–	inconclusive: 1.16 µM [activator, full curve, poor fit]
COc1ccccc1NS(=O)(=O)c1cccc(NC(=O)c2[nH]c(C)c(C(C)=O)c2C)c1	inactive: 0.443%	–
CCN(C[C@H]1N[C@@](Cc2ccccc2)(C(=O)OC)[C@H]2C(=O)N(Cc3ccccc3)C(=O)[C@@H]12)C(=O)c1ccc(F)cc1	inactive: -3.26%	–

Additional records follow.

SMILES	re-replication activation	Potency
COc1ccc2ccccc2c1C1NC(=O)c2ccccc2N1 (stereo unspecified)	–	active: 8.2 µM
CN1C(=O)c2cccc3c(S(=O)(=O)NCCc4ccccc4)ccc1c23	–	inconclusive: 18.4 µM [activator, single point]
CCOC(=O)CC1=NN(c2ccccc2)C(=O)/C1=C\c1ccc(OC)cc1OC	–	inconclusive: 4.61 µM [activator, partial curve, poor fit]
CC1CCN(S(=O)(=O)c2cccc(C(=O)NC3CCCCC3)c2)CC1	inactive: -13.5%	–
Cc1ccc(N(CC(=O)NCc2ccco2)C(=O)CNS(=O)(=O)c2ccc(F)cc2)c(C)c1	inactive: -2.14%	–
CCOc1ccc(C(=O)N2CCCC(c3nc(-c4ccc(C)o4)no3)C2)cc1 (stereo unspecified)	inactive: -64%	–
CCOC(=O)c1ccc(Nc2sc(C(=O)c3cccc([N+](=O)[O-])c3)c(N)c2C#N)cc1	–	inconclusive: 9.2 µM [activator, partial curve, poor fit]
COc1cc(CCC(=O)OCC(=O)Nc2ccccc2C#N)cc(OC)c1OC	–	inconclusive: 0.517 µM [activator, full curve, poor fit]
Cc1sc(N/N=C/c2cc([N+](=O)[O-])ccc2O)nc1-c1ccccc1	inactive: 13.8%	–
Cc1cc(C)c(C)c(S(=O)(=O)NCCCN2CCCC2=O)c1C	inactive: -1.97%	–
CCOCCCn1c(=NC(=O)c2cccnc2)c(C(=O)OCC)cc2c(=O)n3ccccc3nc21	–	inconclusive: 29.1 µM [activator, single point]
CC(=O)Oc1ccc(OC(C)=O)c(S(=O)(=O)c2ccc(C)c(C)c2)c1	–	inconclusive: 0.366 µM [activator, partial curve, poor fit]
O=C(OCCN1C(=O)c2cccc3c(N4CCOCC4)ccc(c23)C1=O)c1ccc(Cl)cc1Cl	–	active: 5.8 µM
NC(=O)c1cc([N+](=O)[O-])c(Cl)cc1NCc1cccnc1	–	inconclusive: 5.17 µM [activator, full curve, poor fit]
Nc1ccc(N=Nc2ccc(O)cc2)c(N)n1	–	inconclusive: 20.6 µM [activator, partial curve, poor fit]
COc1cc(-c2noc(C)c2C#Cc2ccc(N)cc2)cc(OC)c1OC	–	active: 1.16 µM
CN(c1ccccc1)S(=O)(=O)c1ccc2c(c1)oc(=O)n2C	–	inconclusive: 16.4 µM [activator, partial curve, poor fit]
O=C(Nc1nc(COc2ccccc2)cs1)C12CC3CC(CC(C3)C1)C2	inactive: -2.99%	–
O=c1[nH]cnc2c1sc1nc(C(F)F)cc(-c3ccccc3)c12	–	inconclusive: 17.8 µM [activator, single point]
CC(=O)c1sc(Nc2nc(C)cc(C)n2)nc1C	–	inconclusive: 23.1 µM [activator, single point]
CN(CC(=O)Nc1cccc(F)c1)C(=O)c1ccc(N2CCCC2)c([N+](=O)[O-])c1	–	inconclusive: 11.6 µM [activator, partial curve, poor fit]
CCOC(=O)c1c[nH]c2c([N+](=O)[O-])cc(OC)cc2c1=O	–	active: 16.4 µM
COc1cc(CNc2ccc(O)cc2)cc(Br)c1OCc1ccccc1F	–	inconclusive: 29.1 µM [activator, single point]

Source: PubChem BioAssay AID624297 (National Center for Advancing Translational Sciences (NCATS), 2012)
